Experimental findings from PMC7819943, “Rice protein-binding microarrays: a tool to detect cis-acting elements near promoter regions in rice” are described below.

Chains of the proteins cited; added tags and fusions are not shown.
UniProt Q0JBA9, entry or part of it: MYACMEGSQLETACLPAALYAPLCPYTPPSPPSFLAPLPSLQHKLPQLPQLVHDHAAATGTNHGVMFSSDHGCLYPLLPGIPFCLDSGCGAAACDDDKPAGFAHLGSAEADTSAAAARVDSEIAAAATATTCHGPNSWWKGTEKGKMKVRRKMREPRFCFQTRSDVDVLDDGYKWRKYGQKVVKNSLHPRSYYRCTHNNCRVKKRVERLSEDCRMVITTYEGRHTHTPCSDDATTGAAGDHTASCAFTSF

Some of the results follow.

This experiment has as its target OsWRKY34 (Oryza sativa, UniProt Q0JBA9 1-250). As to the kind of experiment: protein-binding microarray (RPBM); PBS, 2% BSA, 51.3 ng/ul salmon testes DNA, 50 uM zinc acetate, 200 nM TF, 25 C, 1 h; high values mean tight binding. As to conditions: protein: recombinant; tags: N-terminal polyhistidine and DsRed monomer fusion (pET32a); label: CyDye5-dUTP incorporated in the synthesized complementary strand; 3' TTTTT single-stranded linker to array surface; dsDNA, one strand shown. An outline of the steps: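 Transcription factors were made in E. coli BL21-CodonPlus as N-terminal fusions to a polyhistidine tag and DsRed, then purified on Ni–NTA. After primer extension with Cy5-dUTP and blocking with 2% BSA, a custom Agilent array was exposed for 1 h at 25 °C to 200 nM protein in PBS, 2% BSA, salmon testes DNA and 50 µM zinc acetate. Washed arrays were scanned on an Axon 4000B, and the binding signal is per-feature fluorescence intensity in arbitrary units.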
With “CCTCCCTACCATTGGGCCCTTGCCCCTTACTTTTGTACAACGGAGTCACCTAGTGCAG”, the binding signal is 9420 fluorescence intensity (a.u.).
With “GGGTGTGTTGTGGTGGTTACCTTCCGGGTTCCGGCGCATCCGGAGTCACCTAGTGCAG”, the binding signal was 9920 fluorescence intensity (a.u.).
Consider “TCACTCACTCACTTCGCTTGCTTTGCTTGGCCCGATCCTTCGGAGTCACCTAGTGCAG”, for which the binding signal was 10100 fluorescence intensity (a.u.).
In the case of “CGTGGGAGTCGTAGTGATTCTGTGCTTGGGTTGGATGTTGCGGAGTCACCTAGTGCAG”, the binding signal was 8950 fluorescence intensity (a.u.).
Consider “TTCTCGAGCTGCTCGATCGCGATTTTTTTTCATTTTTAATCGGAGTCACCTAGTGCAG”, for which the binding signal is 12600 fluorescence intensity (a.u.).
Then “CAGCCCGCCGCCCCGCCCCGCCCCGCCGCAGGTCATTGACCGGAGTCACCTAGTGCAG”, with 16400 fluorescence intensity (a.u.); and “GGGGAAGACGACGTCCGGTTGTTTTATTCGGATGGGCCTCCGGAGTCACCTAGTGCAG”, with 9020 fluorescence intensity (a.u.).
Then “TTGCCTTCTTCCTAGCTGCACACACCAACTTCACCGGAACCGGAGTCACCTAGTGCAG”, with 8640 fluorescence intensity (a.u.).
For the sequence “TTTTCTTCAACTTCAAACTTCACCTTCATCATTTTTAGTTCGGAGTCACCTAGTGCAG”, the binding signal was 9680 fluorescence intensity (a.u.).
Consider “AAGTTTAGAACTTGATCGAGGTGGGCGGATTCTACTACAACGGAGTCACCTAGTGCAG”, for which the binding signal was 9280 fluorescence intensity (a.u.).
For “CCTCTGTTTCCGGAACGGTCTCTATCTTCGATTCCGCTTCCGGAGTCACCTAGTGCAG”, the binding signal is 10200 fluorescence intensity (a.u.).
The value for “TTCCTCCATTTCCACCGGCGCCGGCGGCCGCCGAAACCGCCGGAGTCACCTAGTGCAG” was 8060 fluorescence intensity (a.u.); that for “TACCGTCTTTTCCGGATGTTACAACTTTTTTACGTTACAGCGGAGTCACCTAGTGCAG” was 9910 fluorescence intensity (a.u.); that for “ATCACACGAAAGACGTTACTACGATTCTCTTTCTTCCAAACGGAGTCACCTAGTGCAG” was 9040 fluorescence intensity (a.u.).
As for “ACTTTTTTTTTTGCACTAGTGAATAGCCTTTTTTCCTTTCCGGAGTCACCTAGTGCAG”, the binding signal was 11500 fluorescence intensity (a.u.).
For the sequence “CTCGCATCACACTAGCTTGACACGCCCTCAATTTCTCACACGGAGTCACCTAGTGCAG”, the binding signal was 8140 fluorescence intensity (a.u.).
On to “AGAAAAATCCCATTTCTCCTTTCAGTCCCTGTCCACTTACCGGAGTCACCTAGTGCAG”, for which the binding signal was 11900 fluorescence intensity (a.u.).
Turning to “CTTTTGCCAAAGAACCACTACTACCTTTTGCCCAAGAACACGGAGTCACCTAGTGCAG”, the binding signal was 8220 fluorescence intensity (a.u.).
In the case of “ACTAGGATGCCACGTCAGCGAAACCACCCATATATACTGTCGGAGTCACCTAGTGCAG”, the binding signal was 8590 fluorescence intensity (a.u.).
Regarding “TATTAAGCATATGAAATTATCCCGGTTGTTTGTTCTTTGACGGAGTCACCTAGTGCAG”, the binding signal is 8030 fluorescence intensity (a.u.).
Then “TCCCCTGCTCCCGCGTCATCGTCGCCGCCGCCGCCGCGTCCGGAGTCACCTAGTGCAG”, with 9680 fluorescence intensity (a.u.); and “ATAATACGTTAATTTCAAATCACACTGGCTTATTTAAATCCGGAGTCACCTAGTGCAG”, with 9640 fluorescence intensity (a.u.); and “GCTTTTCTTCCTCGACAAGGCCGCCTGCACCACCGTCTCCCGGAGTCACCTAGTGCAG”, with 10500 fluorescence intensity (a.u.).
For “AACGTCGTAGTCTTTTCAATGCTGCACTCTTCTGTTCGGCCGGAGTCACCTAGTGCAG”, the binding signal is 11100 fluorescence intensity (a.u.).
As to “GGTTCCTGTTTTAGCATTACGATATTTGGGTTGGTTTACTCGGAGTCACCTAGTGCAG”, the binding signal was 12000 fluorescence intensity (a.u.).
In the case of “TATTGTATCGCTATCAGCACTGTTTTATTTGGTAGTACAACGGAGTCACCTAGTGCAG”, the binding signal was 8920 fluorescence intensity (a.u.).
“TCTTTTTATCTCCTTAAAATATGTTTGTAGCTGATTTATACGGAGTCACCTAGTGCAG”: the binding signal was 8380 fluorescence intensity (a.u.).
In the case of “AAATGCAGGTCTCCTCCTACCTCCGGCGAGCCCTCCGCCGCGGAGTCACCTAGTGCAG”, the binding signal was 8270 fluorescence intensity (a.u.).
With “AATTAATTTTGAAGTTGATTTTATGGTTTTTCCTTTTATTCGGAGTCACCTAGTGCAG”, the binding signal was 9090 fluorescence intensity (a.u.).
Consider “AGGGTTCTTTTGTTGTTGCTTCTACTGCTGGCTATTGTGTCGGAGTCACCTAGTGCAG”, for which the binding signal was 8250 fluorescence intensity (a.u.).
For “AATTACTAGTTTCATGGACGGACTCCATATATCCTTTCTTCGGAGTCACCTAGTGCAG”, the binding signal is 8390 fluorescence intensity (a.u.).
“GCCACCTGTCACCATCATAGTCTCCTGCTCTGGTCTCTCCCGGAGTCACCTAGTGCAG”: the binding signal is 10800 fluorescence intensity (a.u.).
For the sequence “CCTGATGCATCCCTGCTGCCTAGTACTACTTACATACATACGGAGTCACCTAGTGCAG”, the binding signal was 9680 fluorescence intensity (a.u.).
“AATGAGTGCTGTGCTGTCCACATCCATAGTCTGGACATAACGGAGTCACCTAGTGCAG”: the binding signal is 9940 fluorescence intensity (a.u.).
Turning to “ACCACTGCATCGATCTGTTGTTCATGCATGCTTTCCTTGACGGAGTCACCTAGTGCAG”, the binding signal was 9340 fluorescence intensity (a.u.).
On to “GCTGCTTAACTTTGCCCACCGGCCACCGTTCAGGGGCCATCGGAGTCACCTAGTGCAG”, for which the binding signal was 8080 fluorescence intensity (a.u.).
Then “GGTTTGAATACACCCTTCGTTTTCGTTTTTTGTTTTTTTTCGGAGTCACCTAGTGCAG”, with 14000 fluorescence intensity (a.u.); and “ACACACACATTCATGCACACCACTAATGGCTGACAATTACCGGAGTCACCTAGTGCAG”, with 9000 fluorescence intensity (a.u.).
Then “CAGCTGCGCTTGGTGCTTCTGCTTTTGTAGCACATCATCACGGAGTCACCTAGTGCAG”, with 8380 fluorescence intensity (a.u.); and “TCCCTTCGGTTTTATACTTTTTCGCCCTAATTTCTTCTTCCGGAGTCACCTAGTGCAG”, with 11200 fluorescence intensity (a.u.); and “TTGTCTTTCTTGAGAATATTTTTGTTTGCTTGTTGATTTTCGGAGTCACCTAGTGCAG”, with 9450 fluorescence intensity (a.u.).
The value for “ACTCAACCCTACACGCGCGTACCTTAATTAACTTGCTAGACGGAGTCACCTAGTGCAG” was 9020 fluorescence intensity (a.u.).
